Results as given in paper PMC7819943, “Rice protein-binding microarrays: a tool to detect cis-acting elements near promoter regions in rice”.
The other results are listed elsewhere or left out.

By UniProt entry, the sequences of proteins in these tests, tags left out.
UniProt Q0JBA9, entry or part of it: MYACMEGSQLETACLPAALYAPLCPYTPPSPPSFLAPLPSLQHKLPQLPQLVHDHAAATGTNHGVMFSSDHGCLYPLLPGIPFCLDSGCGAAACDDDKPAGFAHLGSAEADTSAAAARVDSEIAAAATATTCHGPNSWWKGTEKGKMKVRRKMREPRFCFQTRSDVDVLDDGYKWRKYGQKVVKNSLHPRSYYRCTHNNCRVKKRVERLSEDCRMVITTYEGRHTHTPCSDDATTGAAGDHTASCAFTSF

Each sequence was assayed against OsWRKY34 (Oryza sativa, UniProt Q0JBA9 1-250) (assay: protein-binding microarray (RPBM); PBS, 2% BSA, 51.3 ng/ul salmon testes DNA, 50 uM zinc acetate, 200 nM TF, 25 C, 1 h; high values mean tight binding). Settings: protein: recombinant; tags: N-terminal polyhistidine and DsRed monomer fusion (pET32a); label: CyDye5-dUTP incorporated in the synthesized complementary strand; 3' TTTTT single-stranded linker to array surface; dsDNA, one strand shown.
How it was run: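 Binding signal here means per-feature fluorescence intensity in arbitrary units. The values were read on an Axon 4000B scanner after a custom Agilent array, double-stranded by primer extension with Cy5-dUTP, was incubated with 200 nM protein at 25 °C for 1 h in PBS with 2% BSA, salmon testes DNA and 50 µM zinc acetate, then washed. The proteins were transcription factors with an N-terminal polyhistidine tag and DsRed, expressed in E. coli BL21-CodonPlus and purified on Ni–NTA.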

Sequence | binding signal
TCTGTATGTTGTTTTGTCGTGGTGAAATTGTTGTTAGTATCGGAGTCACCTAGTGCAG | 13700 fluorescence intensity (a.u.)
TTTTTTTTCACTTTTCCATCACATTAAAACTTTCCTACACCGGAGTCACCTAGTGCAG | 8500 fluorescence intensity (a.u.)
CATCCGTATTTTAATGTATGACACCGTTGACTTTTCGACTCGGAGTCACCTAGTGCAG | 19100 fluorescence intensity (a.u.)
CTTTTTTTTCTTAGTCAATCTTCTTAAGCTCTGACCATGTCGGAGTCACCTAGTGCAG | 8040 fluorescence intensity (a.u.)
CCGAAGCGTCATCGCCGGTGGCCGTATCTTCTGCGTTGACCGGAGTCACCTAGTGCAG | 15300 fluorescence intensity (a.u.)
AATTCATTTGTCTTGGTACGCTGTTGGGGCGTAATAGGGGCGGAGTCACCTAGTGCAG | 13200 fluorescence intensity (a.u.)
CTGACAATTTACTAGAGCCATCCTGCTTTGACCATAAATCCGGAGTCACCTAGTGCAG | 11700 fluorescence intensity (a.u.)
GTCGCGTCCCTCACTCCTCACTCCACACACCCCGCCACATCGGAGTCACCTAGTGCAG | 8670 fluorescence intensity (a.u.)
ATGCATGCAATGCACCTTGCATTGTTTTGTTTGATCGTTCCGGAGTCACCTAGTGCAG | 8850 fluorescence intensity (a.u.)
GTATCTTCATGCTTTATTATATTGAACGGTTTATAAGGCTCGGAGTCACCTAGTGCAG | 9060 fluorescence intensity (a.u.)
CGGTGGTTTTGATTTCTCCTGATTGCTGAGGCGATTGCCCCGGAGTCACCTAGTGCAG | 8640 fluorescence intensity (a.u.)
ACAAGTGGGCCTCAATTTTTACTCCACTTTTCCCTTTTCACGGAGTCACCTAGTGCAG | 9880 fluorescence intensity (a.u.)
AGTAAGGTTGGTTTTTCTAGGACGGAGGGAGTAACTTACCCGGAGTCACCTAGTGCAG | 9500 fluorescence intensity (a.u.)
AATATCATCGTCGTTAGGGTTTCGTCCATCCCACACAGTTCGGAGTCACCTAGTGCAG | 8200 fluorescence intensity (a.u.)
TTCGCGTACTCGATGTCGTCCGCGGCGCGGGGCGAGGGGCCGGAGTCACCTAGTGCAG | 10600 fluorescence intensity (a.u.)
CTTGCACTGTCCGAGCTTATTTTACCCACACACTTGCCCTCGGAGTCACCTAGTGCAG | 8290 fluorescence intensity (a.u.)
TTTTCAGTTTCATTTCACCTATTTTTACATGTCTATCTTTCGGAGTCACCTAGTGCAG | 9500 fluorescence intensity (a.u.)
GTTATAAGACGTTTTGATTTTAGTCAAAGTCAAACTATTCCGGAGTCACCTAGTGCAG | 8900 fluorescence intensity (a.u.)
TGCTCTACACAAACATTGTTGTTTTTTTTTTCGTAAGGGGCGGAGTCACCTAGTGCAG | 10500 fluorescence intensity (a.u.)
CATAAACTTTCAACTTTTCCGTCACATCATTCTAATTTCACGGAGTCACCTAGTGCAG | 8940 fluorescence intensity (a.u.)
TGTTGTTATGTTTTTGTCATGATCTCACAAGCAATGTACACGGAGTCACCTAGTGCAG | 11000 fluorescence intensity (a.u.)
GTGCCCACTCCGTTGCTGCCTGCCTGCCTGTCCGTCCTAGCGGAGTCACCTAGTGCAG | 9080 fluorescence intensity (a.u.)
TCCTCCTTCCACATCTCCGTCTCTCTCTCTCTCATCACGACGGAGTCACCTAGTGCAG | 12000 fluorescence intensity (a.u.)
CCACAGCTCGCCGCCGTCCATGCTGCAGGTATGTATCATCCGGAGTCACCTAGTGCAG | 8170 fluorescence intensity (a.u.)
GGCGAACTATGTGATTGTTTTTTTTCTACATTTAATATCTCGGAGTCACCTAGTGCAG | 12300 fluorescence intensity (a.u.)
TGTATGCGTGTGTGTTGTTATGTACCGTAAGACTGTGTTTCGGAGTCACCTAGTGCAG | 9780 fluorescence intensity (a.u.)
CACTCATTCACTCGCTCACTCGGATCCCATTCAATCATTCCGGAGTCACCTAGTGCAG | 9340 fluorescence intensity (a.u.)

Sequence | binding signal
GGTTGGGGAAATTTTAGGAAATGGGCCGAGATGGTACTGTCGGAGTCACCTAGTGCAG | 8140 fluorescence intensity (a.u.)
GCCTGCGTTTTTTTTATCCTTTCTGCTTGCACGAATCTCGCGGAGTCACCTAGTGCAG | 8070 fluorescence intensity (a.u.)
CGCCCACCCGCCCGCCGCTTTGCGTGTGCGCACAACACAGCGGAGTCACCTAGTGCAG | 8370 fluorescence intensity (a.u.)
ACCGGACAACCAAACATCCACCTCGTTTCAGCTTTTCTTACGGAGTCACCTAGTGCAG | 8290 fluorescence intensity (a.u.)
ACAACACTAACAACATCTCCACTGCACCCATCTCTCTTGCCGGAGTCACCTAGTGCAG | 8290 fluorescence intensity (a.u.)
TCGCTATGTTTGCTGCACTCGAGGATGAACGCGCGATTCACGGAGTCACCTAGTGCAG | 10200 fluorescence intensity (a.u.)
GGCGGCGGCGGCGGCGTGGAGGGGAATGGGGAGAGAGTGGCGGAGTCACCTAGTGCAG | 9120 fluorescence intensity (a.u.)
CCGTTTTGCTCTCAAATTTGAATAAATATTACTCTTTTTTCGGAGTCACCTAGTGCAG | 9520 fluorescence intensity (a.u.)
TTTCTCTTGATTGCACCTGCATTTTCTTGGGGTCGTTTATCGGAGTCACCTAGTGCAG | 8600 fluorescence intensity (a.u.)
ATTTATTTTTTACCCTTATATCTATTTCCAACGGCTTTTACGGAGTCACCTAGTGCAG | 8090 fluorescence intensity (a.u.)
TAAGGCATCAACACGTTTGGCAGCTACCTTCCTTATTTATCGGAGTCACCTAGTGCAG | 8790 fluorescence intensity (a.u.)
GCCCGACTGCTTCTTGCGCTTCCCGCCGTCGGCCAGCAGGCGGAGTCACCTAGTGCAG | 8650 fluorescence intensity (a.u.)
TATGGTCTTCTCCTATGTATCGTTCTGCTGATTTTTTTTACGGAGTCACCTAGTGCAG | 9360 fluorescence intensity (a.u.)
CTTGTTGCTTCACTCAAAGTGAGTGTTCTTGTCAGTTGTCCGGAGTCACCTAGTGCAG | 9080 fluorescence intensity (a.u.)
ACAGGTGTTGGTTAGTTGTGTTTCGTTTGCTTAGAAGTAACGGAGTCACCTAGTGCAG | 8180 fluorescence intensity (a.u.)
GCCTCGAGGGATGAAATTCCACATCCCTATATTCACATGTCGGAGTCACCTAGTGCAG | 8810 fluorescence intensity (a.u.)
CCATCCATCCACCATCTTGCATGCTAGCTAGCTACCCTGCCGGAGTCACCTAGTGCAG | 11100 fluorescence intensity (a.u.)
ATTCAACTTACATGTGAAATTTATTTATTGTAGGCCTCATCGGAGTCACCTAGTGCAG | 8330 fluorescence intensity (a.u.)
CTCACATGTTTGACCAATCGTCTTATTCAAAAATTTTATGCGGAGTCACCTAGTGCAG | 10500 fluorescence intensity (a.u.)
CCAGAGAACATGCCTCACATACTATACATATTGCATCTGTCGGAGTCACCTAGTGCAG | 8140 fluorescence intensity (a.u.)
CTCCTTCCATCTTTGACCTCGTCTCGTCTCGTCTCGTCTCCGGAGTCACCTAGTGCAG | 11200 fluorescence intensity (a.u.)
GCTTCGGCTTCTCTCAACTACTGTTTGCTTCGCCGCCGTCCGGAGTCACCTAGTGCAG | 13200 fluorescence intensity (a.u.)
CTCACTCGTCACTCTCCTATTCTCACCGGCCTCGCAGCTGCGGAGTCACCTAGTGCAG | 13900 fluorescence intensity (a.u.)
GATACTCACATTGTTATAGTCAAATATTTTCATCTGCTTACGGAGTCACCTAGTGCAG | 8160 fluorescence intensity (a.u.)
AGAGGAGAGAAAAAATTCTACATGTCACATATTACGTTCACGGAGTCACCTAGTGCAG | 8810 fluorescence intensity (a.u.)
TTTGCTTGTTTCATTTTTTTTCAGATAGTCTGAATGTCTGCGGAGTCACCTAGTGCAG | 8920 fluorescence intensity (a.u.)
TTGGTTTGGTTCGTGGCCTAAATAGGCCTTACTAAATTTTCGGAGTCACCTAGTGCAG | 9030 fluorescence intensity (a.u.)

Part of the list above in a different format.
Sequence	binding signal
GCCTGCGTTTTTTTTATCCTTTCTGCTTGCACGAATCTCGCGGAGTCACCTAGTGCAG	8070 fluorescence intensity (a.u.)
CGCCCACCCGCCCGCCGCTTTGCGTGTGCGCACAACACAGCGGAGTCACCTAGTGCAG	8370 fluorescence intensity (a.u.)
ACAACACTAACAACATCTCCACTGCACCCATCTCTCTTGCCGGAGTCACCTAGTGCAG	8290 fluorescence intensity (a.u.)
TCGCTATGTTTGCTGCACTCGAGGATGAACGCGCGATTCACGGAGTCACCTAGTGCAG	10200 fluorescence intensity (a.u.)
ATTTATTTTTTACCCTTATATCTATTTCCAACGGCTTTTACGGAGTCACCTAGTGCAG	8090 fluorescence intensity (a.u.)
TAAGGCATCAACACGTTTGGCAGCTACCTTCCTTATTTATCGGAGTCACCTAGTGCAG	8790 fluorescence intensity (a.u.)
GCCCGACTGCTTCTTGCGCTTCCCGCCGTCGGCCAGCAGGCGGAGTCACCTAGTGCAG	8650 fluorescence intensity (a.u.)
CTTGTTGCTTCACTCAAAGTGAGTGTTCTTGTCAGTTGTCCGGAGTCACCTAGTGCAG	9080 fluorescence intensity (a.u.)
ACAGGTGTTGGTTAGTTGTGTTTCGTTTGCTTAGAAGTAACGGAGTCACCTAGTGCAG	8180 fluorescence intensity (a.u.)
GCCTCGAGGGATGAAATTCCACATCCCTATATTCACATGTCGGAGTCACCTAGTGCAG	8810 fluorescence intensity (a.u.)
ATTCAACTTACATGTGAAATTTATTTATTGTAGGCCTCATCGGAGTCACCTAGTGCAG	8330 fluorescence intensity (a.u.)
CTCCTTCCATCTTTGACCTCGTCTCGTCTCGTCTCGTCTCCGGAGTCACCTAGTGCAG	11200 fluorescence intensity (a.u.)
GCTTCGGCTTCTCTCAACTACTGTTTGCTTCGCCGCCGTCCGGAGTCACCTAGTGCAG	13200 fluorescence intensity (a.u.)
GATACTCACATTGTTATAGTCAAATATTTTCATCTGCTTACGGAGTCACCTAGTGCAG	8160 fluorescence intensity (a.u.)
TTTGCTTGTTTCATTTTTTTTCAGATAGTCTGAATGTCTGCGGAGTCACCTAGTGCAG	8920 fluorescence intensity (a.u.)
TTGGTTTGGTTCGTGGCCTAAATAGGCCTTACTAAATTTTCGGAGTCACCTAGTGCAG	9030 fluorescence intensity (a.u.)
